{
  "sequences": {"note": "Sequences of proteins named here, by UniProt entry; tags and fusion partners are left off. A change or cut given only in a name is not applied to a line headed by its entry. A line that says so, or that is headed by a name, gives the form on record, which may keep a tag or linker.", "间皮素-生物素 (Q13421, form named)": "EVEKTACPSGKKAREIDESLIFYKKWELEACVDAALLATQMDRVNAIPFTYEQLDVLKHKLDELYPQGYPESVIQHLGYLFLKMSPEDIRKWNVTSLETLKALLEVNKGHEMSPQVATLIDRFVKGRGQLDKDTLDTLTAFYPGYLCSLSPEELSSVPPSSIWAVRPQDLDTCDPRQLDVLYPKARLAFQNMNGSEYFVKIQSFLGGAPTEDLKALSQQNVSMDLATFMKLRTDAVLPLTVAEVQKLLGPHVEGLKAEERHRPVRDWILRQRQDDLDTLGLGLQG"},
  "source": "patent CN110746505A",
  "binders": {"B1": {"name": "meso3-CAR (protein)", "chain": "EVQLVESGGGLVQPGGSLRLSCAASGFDLGFYFYACWVRQAPGKGLEWVSCIYTAGSGSTYYASWAKGRFTISRDNSKNTLYLQMNSLRAEDTAVYYCARSTANTRSTYYLNLWGQGTLVTVSSGGGGSGGGGSGGGGSDIQMTQSPSSLSASVGDRVTITCQASQRISSYLSWYQQKPGKVPKLLIYGASTLASGVPSRFSGSGSGTDFTLTISSLQPEDVATYYCQSYAYFDSNNWHAFGGGTKVEIKESKYGPPCPPCPAPPVAGPSVFLFPPKPKDTLMISRTPEVTCVVVDVSQEDPEVQFNWYVDGVEVHNAKTKPREEQFQSTYRVVSVLTVLHQDWLNGKEYKCKVSNKGLPSSIEKTISKAKGQPREPQVYTLPPSQEEMTKNQVSLTCLVKGFYPSDIAVEWESNGQPENNYKTTPPVLDSDGSFFLYSRLTVDKSRWQEGNVFSCSVMHEALHNHYTQKSLSLSLGKPFWVLVVVGGVLACYSLLVTVAFIIFWVRSKRSRLLHSDYMNMTPRRPGPTRKHYQPYAPPRDFAAYRSRVKFSRSADAPAYQQGQNQLYNELNLGRREEYDVLDKRRGRDPEMGGKPRRKNPQEGLYNELQKDKMAEAYSEIGMKGERRRGKGHDGLYQGLSTATKDTYDALHMQALPPR"}, "B2": {"name": "meso3-60F-CAR (protein)", "chain": "EVQLVESGGGLVQPGGSLRLSCAASGFDLGFYFYACWFRQAPGKGLEWVSCIYTAGSGSTYYASWAKGRFTISRDNSKNTLYLQMNSLRAEDTAVYYCARSTANTRSTYYLNLWGQGTLVTVSSGGGGSGGGGSGGGGSDIQMTQSPSSLSASVGDRVTITCQASQRISSYLSWYQQKPGKVPKLLIYGASTLASGVPSRFSGSGSGTDFTLTISSLQPEDVATYYCQSYAYFDSNNWHAFGGGTKVEIKESKYGPPCPPCPAPPVAGPSVFLFPPKPKDTLMISRTPEVTCVVVDVSQEDPEVQFNWYVDGVEVHNAKTKPREEQFQSTYRVVSVLTVLHQDWLNGKEYKCKVSNKGLPSSIEKTISKAKGQPREPQVYTLPPSQEEMTKNQVSLTCLVKGFYPSDIAVEWESNGQPENNYKTTPPVLDSDGSFFLYSRLTVDKSRWQEGNVFSCSVMHEALHNHYTQKSLSLSLGKPFWVLVVVGGVLACYSLLVTVAFIIFWVRSKRSRLLHSDYMNMTPRRPGPTRKHYQPYAPPRDFAAYRSRVKFSRSADAPAYQQGQNQLYNELNLGRREEYDVLDKRRGRDPEMGGKPRRKNPQEGLYNELQKDKMAEAYSEIGMKGERRRGKGHDGLYQGLSTATKDTYDALHMQALPPR"}, "B3": {"name": "meso3-67E-CAR (protein)", "chain": "EVQLVESGGGLVQPGGSLRLSCAASGFDLGFYFYACWVRQAPGKELEWVSCIYTAGSGSTYYASWAKGRFTISRDNSKNTLYLQMNSLRAEDTAVYYCARSTANTRSTYYLNLWGQGTLVTVSSGGGGSGGGGSGGGGSDIQMTQSPSSLSASVGDRVTITCQASQRISSYLSWYQQKPGKVPKLLIYGASTLASGVPSRFSGSGSGTDFTLTISSLQPEDVATYYCQSYAYFDSNNWHAFGGGTKVEIKESKYGPPCPPCPAPPVAGPSVFLFPPKPKDTLMISRTPEVTCVVVDVSQEDPEVQFNWYVDGVEVHNAKTKPREEQFQSTYRVVSVLTVLHQDWLNGKEYKCKVSNKGLPSSIEKTISKAKGQPREPQVYTLPPSQEEMTKNQVSLTCLVKGFYPSDIAVEWESNGQPENNYKTTPPVLDSDGSFFLYSRLTVDKSRWQEGNVFSCSVMHEALHNHYTQKSLSLSLGKPFWVLVVVGGVLACYSLLVTVAFIIFWVRSKRSRLLHSDYMNMTPRRPGPTRKHYQPYAPPRDFAAYRSRVKFSRSADAPAYQQGQNQLYNELNLGRREEYDVLDKRRGRDPEMGGKPRRKNPQEGLYNELQKDKMAEAYSEIGMKGERRRGKGHDGLYQGLSTATKDTYDALHMQALPPR"}, "B4": {"name": "meso3-68R-CAR (protein)", "chain": "EVQLVESGGGLVQPGGSLRLSCAASGFDLGFYFYACWVRQAPGKGREWVSCIYTAGSGSTYYASWAKGRFTISRDNSKNTLYLQMNSLRAEDTAVYYCARSTANTRSTYYLNLWGQGTLVTVSSGGGGSGGGGSGGGGSDIQMTQSPSSLSASVGDRVTITCQASQRISSYLSWYQQKPGKVPKLLIYGASTLASGVPSRFSGSGSGTDFTLTISSLQPEDVATYYCQSYAYFDSNNWHAFGGGTKVEIKESKYGPPCPPCPAPPVAGPSVFLFPPKPKDTLMISRTPEVTCVVVDVSQEDPEVQFNWYVDGVEVHNAKTKPREEQFQSTYRVVSVLTVLHQDWLNGKEYKCKVSNKGLPSSIEKTISKAKGQPREPQVYTLPPSQEEMTKNQVSLTCLVKGFYPSDIAVEWESNGQPENNYKTTPPVLDSDGSFFLYSRLTVDKSRWQEGNVFSCSVMHEALHNHYTQKSLSLSLGKPFWVLVVVGGVLACYSLLVTVAFIIFWVRSKRSRLLHSDYMNMTPRRPGPTRKHYQPYAPPRDFAAYRSRVKFSRSADAPAYQQGQNQLYNELNLGRREEYDVLDKRRGRDPEMGGKPRRKNPQEGLYNELQKDKMAEAYSEIGMKGERRRGKGHDGLYQGLSTATKDTYDALHMQALPPR"}, "B5": {"name": "meso3-70G-CAR (protein)", "chain": "EVQLVESGGGLVQPGGSLRLSCAASGFDLGFYFYACWVRQAPGKGLEGVSCIYTAGSGSTYYASWAKGRFTISRDNSKNTLYLQMNSLRAEDTAVYYCARSTANTRSTYYLNLWGQGTLVTVSSGGGGSGGGGSGGGGSDIQMTQSPSSLSASVGDRVTITCQASQRISSYLSWYQQKPGKVPKLLIYGASTLASGVPSRFSGSGSGTDFTLTISSLQPEDVATYYCQSYAYFDSNNWHAFGGGTKVEIKESKYGPPCPPCPAPPVAGPSVFLFPPKPKDTLMISRTPEVTCVVVDVSQEDPEVQFNWYVDGVEVHNAKTKPREEQFQSTYRVVSVLTVLHQDWLNGKEYKCKVSNKGLPSSIEKTISKAKGQPREPQVYTLPPSQEEMTKNQVSLTCLVKGFYPSDIAVEWESNGQPENNYKTTPPVLDSDGSFFLYSRLTVDKSRWQEGNVFSCSVMHEALHNHYTQKSLSLSLGKPFWVLVVVGGVLACYSLLVTVAFIIFWVRSKRSRLLHSDYMNMTPRRPGPTRKHYQPYAPPRDFAAYRSRVKFSRSADAPAYQQGQNQLYNELNLGRREEYDVLDKRRGRDPEMGGKPRRKNPQEGLYNELQKDKMAEAYSEIGMKGERRRGKGHDGLYQGLSTATKDTYDALHMQALPPR"}},
  "note": "Results are given in words; binding and its absence hold for the method and conditions named. Some entries that bind do so weakly or less than the wild type.",
  "data": [
    {"target": "间皮素-生物素 (UniProt Q13421)", "assay": "flow cytometry, CAR-T cells stained with 1 ug mesothelin-biotin and streptavidin-PE", "values": [
      {"binder": "B1", "binding": "binds"},
      {"binder": "B2", "binding": "binds"},
      {"binder": "B3", "binding": "binds"},
      {"binder": "B4", "binding": "binds"},
      {"binder": "B5", "binding": "binds"}
    ]}
  ]
}
